# Laboratory results taken from the supplement of paper PMC8728848.
# The other results are listed elsewhere or left out.
# Tests used:
# Experiment in all cases: glycan array binding signal (z-score within array); higher = stronger binding
# Conditions in all cases: glycan notation: IUPAC condensed, linker removed
# Man(b1-4)GlcNAc = molecular target: Man(b1-4)GlcNAc
# In short: (§1)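 Glycan array data came from 3228 arrays in the Consortium for Functional Glycomics database, and only arrays with an available protein sequence were kept. Glycan names were put into IUPAC-condensed notation, and columns mapping to the same glycan were averaged. The binding signal is a within-array Z-score, averaged across arrays of one protein sequence run at different concentrations or buffers and across linkers. A negative Z-score can be read as non-binding.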
# Neu5Ac(a2-3)Gal = molecular target: Neu5Ac(a2-3)Gal
# In short: as §1
# [1] = molecular target: Neu5Ac(a2-3)Gal(b1-3)GalNAc
# In short: as §1
# [2] = molecular target: Neu5Ac(a2-3)Gal(b1-3)GalNAc(b1-3)Gal(a1-4)Gal(b1-4)Glc
# In short: as §1
# [3] = molecular target: Neu5Ac(a2-3)Gal(b1-3)GalNAc(b1-3)Gal(b1-4)GlcNAc
# In short: as §1
# [4] = molecular target: Neu5Ac(a2-3)Gal(b1-3)GalNAc(b1-4)[Neu5Ac(a2-3)]Gal(b1-4)Glc
# In short: as §1
# [5] = molecular target: Neu5Ac(a2-3)Gal(b1-3)GalNAc6S
# In short: as §1
# [6] = molecular target: Neu5Ac(a2-3)Gal(b1-3)GlcNAc
# In short: as §1
# [7] = molecular target: Neu5Ac(a2-3)Gal(b1-3)GlcNAc(b1-3)Gal(b1-3)GlcNAc
# In short: as §1
# [8] = molecular target: Neu5Ac(a2-3)Gal(b1-3)GlcNAc6S
# In short: as §1
# [9] = molecular target: Neu5Ac(a2-3)Gal(b1-3)[Fuc(a1-4)]GlcNAc
# In short: as §1
# [10] = molecular target: Neu5Ac(a2-3)Gal(b1-3)[Fuc(a1-4)]GlcNAc(b1-3)Gal(b1-3)[Fuc(a1-4)]GlcNAc
# In short: as §1
# [11] = molecular target: Neu5Ac(a2-3)Gal(b1-3)[Fuc(a1-4)]GlcNAc(b1-3)Gal(b1-4)[Fuc(a1-3)]GlcNAc
# In short: as §1
# [12] = molecular target: Neu5Ac(a2-3)Gal(b1-3)[Neu5Ac(a2-3)Gal(b1-4)]GlcNAc
# In short: as §1
# [13] = molecular target: Neu5Ac(a2-3)Gal(b1-3)[Neu5Ac(a2-6)]GalNAc
# In short: as §1
# Neu5Ac(a2-3)Gal(b1-4)Glc = molecular target: Neu5Ac(a2-3)Gal(b1-4)Glc
# In short: as §1
# [14] = molecular target: Neu5Ac(a2-3)Gal(b1-4)GlcNAc
# In short: as §1
# [15] = molecular target: Neu5Ac(a2-3)Gal(b1-4)GlcNAc(b1-2)Man(a1-3)[GlcNAc(b1-2)Man(b1-4)GlcNAc(b1-2)Man(a1-6)]Man(b1-4)GlcNAc(b1-4)GlcNAc
# In short: as §1
# [16] = molecular target: Neu5Ac(a2-3)Gal(b1-4)GlcNAc(b1-2)Man(a1-3)[Neu5Ac(a2-6)Gal(b1-4)GlcNAc(b1-2)Man(a1-6)]Man(b1-4)GlcNAc(b1-4)GlcNAc
# In short: as §1
# [17] = molecular target: Neu5Ac(a2-3)Gal(b1-4)GlcNAc(b1-3)Gal(b1-3)GlcNAc
# In short: as §1
# [18] = molecular target: Neu5Ac(a2-3)Gal(b1-4)GlcNAc(b1-3)Gal(b1-4)GlcNAc
# In short: as §1
# [19] = molecular target: Neu5Ac(a2-3)Gal(b1-4)GlcNAc(b1-3)Gal(b1-4)GlcNAc(b1-3)Gal(b1-4)GlcNAc
# In short: as §1
# [20] = molecular target: Neu5Ac(a2-3)Gal(b1-4)GlcNAc(b1-3)Gal(b1-4)[Fuc(a1-3)]GlcNAc
# In short: as §1
# [21] = molecular target: Neu5Ac(a2-3)Gal(b1-4)GlcNAc(b1-3)GalNAc
# In short: as §1
# [22] = molecular target: Neu5Ac(a2-3)Gal(b1-4)GlcNAc(b1-6)[Gal(b1-3)]GalNAc
# In short: as §1
# [23] = molecular target: Neu5Ac(a2-3)Gal(b1-4)GlcNAc(b1-6)[Neu5Ac(a2-3)Gal(b1-3)]GalNAc
# In short: as §1
# [24] = molecular target: Neu5Ac(a2-3)Gal(b1-4)GlcNAc6S
# In short: as §1
# [25] = molecular target: Neu5Ac(a2-3)Gal(b1-4)[Fuc(a1-3)]GlcNAc
# In short: as §1
# [26] = molecular target: Neu5Ac(a2-3)Gal(b1-4)[Fuc(a1-3)]GlcNAc(b1-3)Gal
# In short: as §1
# [27] = molecular target: Neu5Ac(a2-3)Gal(b1-4)[Fuc(a1-3)]GlcNAc(b1-3)Gal(b1-4)GlcNAc
# In short: as §1
# [28] = molecular target: Neu5Ac(a2-3)Gal(b1-4)[Fuc(a1-3)]GlcNAc(b1-3)Gal(b1-4)[Fuc(a1-3)]GlcNAc(b1-3)Gal(b1-4)[Fuc(a1-3)]GlcNAc
# In short: as §1
# [29] = molecular target: Neu5Ac(a2-3)Gal(b1-4)[Fuc(a1-3)]GlcNAc(b1-6)[Gal(b1-3)]GalNAc
# In short: as §1
# [30] = molecular target: Neu5Ac(a2-3)Gal(b1-4)[Fuc(a1-3)]GlcNAc(b1-6)[Neu5Ac(a2-3)Gal(b1-3)]GalNAc
# In short: as §1
# [31] = molecular target: Neu5Ac(a2-3)Gal(b1-4)[Fuc(a1-3)]GlcNAc6S
# In short: as §1
# [32] = molecular target: Neu5Ac(a2-3)Gal6S(b1-4)GlcNAc
# In short: as §1
# [33] = molecular target: Neu5Ac(a2-3)Gal6S(b1-4)[Fuc(a1-3)]GlcNAc
# In short: as §1
# Neu5Ac(a2-3)GalNAc = molecular target: Neu5Ac(a2-3)GalNAc
# In short: as §1
# [34] = molecular target: Neu5Ac(a2-3)GalNAc(b1-4)GlcNAc
# In short: as §1
# [35] = molecular target: Neu5Ac(a2-3)[GalNAc(b1-4)]Gal(b1-4)Glc
# In short: as §1
# [36] = molecular target: Neu5Ac(a2-3)[GalNAc(b1-4)]Gal(b1-4)GlcNAc
# In short: as §1
# [37] = molecular target: Neu5Ac(a2-3)[Neu5Ac(a2-6)]GalNAc
# In short: as §1
# Neu5Ac(a2-6)Gal = molecular target: Neu5Ac(a2-6)Gal
# In short: as §1
binder,measurement,setting,value
"CTLX (Homo sapiens), Q6UXS0 (protein) SLCPLFWMEFKGHCYRFFPLNKTWAEADLYCSEFSVGRKSAKLASIHSWEENVFVYDLVNSCVPGIPADVWTGLHDHRQEGQFEWTDGSSYDYSYWDGSQPDDGVHADPEEEDCVQIWYRPTSALRSWNDNTCSRKFPFVCKIPSLTIH",glycan array binding signal (z-score),Man(b1-4)GlcNAc,-0.67
same,glycan array binding signal (z-score),Neu5Ac(a2-3)Gal,-0.528
same,glycan array binding signal (z-score),[1],-1.15
same,glycan array binding signal (z-score),[2],-1.66
same,glycan array binding signal (z-score),[3],0.309
same,glycan array binding signal (z-score),[4],0.12
same,glycan array binding signal (z-score),[5],-0.166
same,glycan array binding signal (z-score),[6],-0.757
same,glycan array binding signal (z-score),[7],-0.392
same,glycan array binding signal (z-score),[8],-0.421
same,glycan array binding signal (z-score),[9],-0.468
same,glycan array binding signal (z-score),[10],1.2
same,glycan array binding signal (z-score),[11],-0.602
same,glycan array binding signal (z-score),[12],-0.427
same,glycan array binding signal (z-score),[13],0.498
same,glycan array binding signal (z-score),Neu5Ac(a2-3)Gal(b1-4)Glc,0.763
same,glycan array binding signal (z-score),[14],-0.216
same,glycan array binding signal (z-score),[15],-0.248
same,glycan array binding signal (z-score),[16],-0.689
same,glycan array binding signal (z-score),[17],-0.496
same,glycan array binding signal (z-score),[18],-0.297
same,glycan array binding signal (z-score),[19],-0.31
same,glycan array binding signal (z-score),[20],-0.47
same,glycan array binding signal (z-score),[21],-1.05
same,glycan array binding signal (z-score),[22],-0.846
same,glycan array binding signal (z-score),[23],-0.224
same,glycan array binding signal (z-score),[24],2.28
same,glycan array binding signal (z-score),[25],-0.167
same,glycan array binding signal (z-score),[26],0.23
same,glycan array binding signal (z-score),[27],0.362
same,glycan array binding signal (z-score),[28],0.44
same,glycan array binding signal (z-score),[29],4
same,glycan array binding signal (z-score),[30],0.767
same,glycan array binding signal (z-score),[31],0.88
same,glycan array binding signal (z-score),[32],-0.685
same,glycan array binding signal (z-score),[33],-0.835
same,glycan array binding signal (z-score),Neu5Ac(a2-3)GalNAc,-0.156
same,glycan array binding signal (z-score),[34],-0.604
same,glycan array binding signal (z-score),[35],-1.19
same,glycan array binding signal (z-score),[36],-0.041
same,glycan array binding signal (z-score),[37],-1.38
same,glycan array binding signal (z-score),Neu5Ac(a2-6)Gal,-1.17
